Source: PubChem BioAssay AID504791 (Drosophila RNAi Screening Center, 2011)

- Aim: 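Genes whose knock-down strengthens or weakens small-RNA reporter silencing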 (primary screen)
- Cell system: Drosophila S2-derived reporter cells
- Reagents: long dsRNA against Drosophila genes, about 150-250 ng dsRNA per well (siRNA assay); about 80-120 ng (miRNA assay)
- Duration: about 5 days (siRNA assay); about 4 days (miRNA assay)
- Challenge: copper sulfate induction of reporters: 25 µM (siRNA assay); 200 mM stated (miRNA assay), 1-2 days before reading
- Measured: 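Dual luciferase assay: Renilla to firefly signal ratio in each well, scaled to the mean ratio of its plate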
- Scale: siRNA reporter hit score: higher = 3 marks a strong hit with raised ratio; -3 a strong hit with lowered ratio
- Rule for the call: 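a well was a first-pass pick when its plate-scaled ratio rose above 1.5 (siRNA assay) or 1.6 (miRNA assay), or dropped below 0.6; a gene counted only if two separate dsRNAs agreed on retest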
The deposit covers about 23,000 reagents; below is an unselected part of those that have a named target and a result. In the full data, 199 (0.86%) got an active call. 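Plate-scaled ratios behind the calls are not deposited; printed light signals are raw; many rows marked increased or decreased are still called inactive.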 The numbers tell different reagents against one gene apart. No sequences are given here.

CG11686
- stable assay Renilla, run 1 (luminescence): 6354
- stable assay firefly, run 1 (luminescence): 3.74e5
- call: inactive

CG10038
- stable assay Renilla, run 1 (luminescence): 8366
- stable assay firefly, run 1 (luminescence): 4.87e5
- call: inactive

CSN7 (COP9 signalosome subunit 7) #1
- stable siRNA reporter change: reporter ratio lowered past the hit cutoff
- stable assay Renilla, run 1 (luminescence): 4906
- stable assay firefly, run 1 (luminescence): 4.69e5
- call: active

CSN7 (COP9 signalosome subunit 7) #2
- stable siRNA reporter change: reporter ratio lowered past the hit cutoff
- stable assay Renilla, run 1 (luminescence): 5019
- stable assay firefly, run 1 (luminescence): 5.56e5
- call: active

Octbeta2R (Octopamine beta2 receptor) #1
- stable assay Renilla, run 1 (luminescence): 6690
- stable assay firefly, run 1 (luminescence): 3.91e5
- call: inactive

Octbeta2R (Octopamine beta2 receptor) #2
- stable assay Renilla, run 1 (luminescence): 6546
- stable assay firefly, run 1 (luminescence): 4.21e5
- call: inactive

Eh (Eclosion hormone)
- stable assay Renilla, run 1 (luminescence): 6694
- stable assay firefly, run 1 (luminescence): 3.77e5
- call: inactive

p130CAS #1
- stable assay Renilla, run 1 (luminescence): 5855
- stable assay firefly, run 1 (luminescence): 4.40e5
- call: inactive

p130CAS #2
- stable assay Renilla, run 1 (luminescence): 9788
- stable assay firefly, run 1 (luminescence): 3.00e5
- call: inactive

CG7016
- stable assay Renilla, run 1 (luminescence): 7503
- stable assay firefly, run 1 (luminescence): 4.16e5
- call: inactive

CG5895
- stable assay Renilla, run 1 (luminescence): 7123
- stable assay firefly, run 1 (luminescence): 4.65e5
- call: inactive

CG12436 (retired record) #1
- siRNA reporter hit score: -3
- stable assay Renilla, run 1 (luminescence): 7111
- stable assay firefly, run 1 (luminescence): 5.13e5
- call: inactive

CG12436 (retired record) #2
- stable assay Renilla, run 1 (luminescence): 7075
- stable assay firefly, run 1 (luminescence): 4.00e5
- call: inactive

Damm (Death associated molecule related to Mch2 caspase)
- stable assay Renilla, run 1 (luminescence): 5930
- stable assay firefly, run 1 (luminescence): 3.49e5
- call: inactive

CG4733
- stable assay Renilla, run 1 (luminescence): 7646
- stable assay firefly, run 1 (luminescence): 3.64e5
- call: inactive

CG8138
- stable assay Renilla, run 1 (luminescence): 6863
- stable assay firefly, run 1 (luminescence): 4.14e5
- call: inactive

CG14096 #1
- stable assay Renilla, run 1 (luminescence): 4755
- stable assay firefly, run 1 (luminescence): 5.20e5
- call: inactive

CG14096 #2
- miRNA reporter change: reporter ratio lowered past the hit cutoff
- call: inactive

CR33317 (pseudo)
- stable assay Renilla, run 1 (luminescence): 7419
- stable assay firefly, run 1 (luminescence): 5.03e5
- call: inactive

SNF4Agamma (SNF4/AMP-activated protein kinase gamma subunit) #1
- stable assay Renilla, run 1 (luminescence): 2651
- stable assay firefly, run 1 (luminescence): 3.57e5
- call: inactive

SNF4Agamma (SNF4/AMP-activated protein kinase gamma subunit) #2
- stable assay Renilla, run 1 (luminescence): 3423
- stable assay firefly, run 1 (luminescence): 3.61e5
- call: inactive

SNF4Agamma (SNF4/AMP-activated protein kinase gamma subunit) #3
- stable assay Renilla, run 1 (luminescence): 8332
- stable assay firefly, run 1 (luminescence): 5.01e5
- call: inactive

SNF4Agamma (SNF4/AMP-activated protein kinase gamma subunit) #4
- stable assay Renilla, run 1 (luminescence): 11307
- stable assay firefly, run 1 (luminescence): 2.96e5
- call: inactive

lambdaTry
- stable assay Renilla, run 1 (luminescence): 6331
- stable assay firefly, run 1 (luminescence): 2.92e5
- call: inactive

Sap30 (SIN3-associated polypeptide 30)
- stable assay Renilla, run 1 (luminescence): 4727
- stable assay firefly, run 1 (luminescence): 3.62e5
- call: inactive

fusl (fuseless)
- stable assay Renilla, run 1 (luminescence): 1.19e5
- stable assay firefly, run 1 (luminescence): 1.06e5
- call: inactive

Cyp28d2 (Cytochrome P450 28d2)
- stable assay Renilla, run 1 (luminescence): 7615
- stable assay firefly, run 1 (luminescence): 4.41e5
- call: inactive

IntS14 (Integrator 14)
- siRNA reporter hit score: -3
- stable siRNA reporter change: reporter ratio raised past the hit cutoff
- miRNA reporter change: reporter ratio raised past the hit cutoff
- stable assay Renilla, run 1 (luminescence): 37590
- stable assay firefly, run 1 (luminescence): 2.26e5
- call: active

CG11755
- stable assay Renilla, run 1 (luminescence): 7487
- stable assay firefly, run 1 (luminescence): 5.31e5
- call: inactive

tty (tweety)
- stable assay Renilla, run 1 (luminescence): 7106
- stable assay firefly, run 1 (luminescence): 5.12e5
- call: inactive

Cyp4g1 (Cytochrome P450 4g1)
- stable assay Renilla, run 1 (luminescence): 8539
- stable assay firefly, run 1 (luminescence): 4.29e5
- call: inactive

Tig (Tiggrin)
- stable assay Renilla, run 1 (luminescence): 8862
- stable assay firefly, run 1 (luminescence): 5.51e5
- call: inactive

CG14968
- stable assay Renilla, run 1 (luminescence): 6826
- stable assay firefly, run 1 (luminescence): 5.05e5
- call: inactive

CG15629
- stable assay Renilla, run 1 (luminescence): 7782
- stable assay firefly, run 1 (luminescence): 4.41e5
- call: inactive

Dlish (Dachs ligand with SH3s)
- stable assay Renilla, run 1 (luminescence): 6484
- stable assay firefly, run 1 (luminescence): 3.35e5
- call: inactive

In a second layout: entries from further up
lambdaTry: stable assay Renilla, run 1 (luminescence) = 6331; stable assay firefly, run 1 (luminescence) = 2.92e5; call = inactive
Sap30 (SIN3-associated polypeptide 30): stable assay Renilla, run 1 (luminescence) = 4727; stable assay firefly, run 1 (luminescence) = 3.62e5; call = inactive
fusl (fuseless): stable assay Renilla, run 1 (luminescence) = 1.19e5; stable assay firefly, run 1 (luminescence) = 1.06e5; call = inactive
